These are yes or no findings as the source states them, for the method shown. Binding seen in cells or lysates may run through a third protein. A result given as binding can be weak or reduced; the word gives no strength.
Molecular target: T1, supervillin construct SV1-830-GFP (UniProt O46385-2 1-830)
T1 construct: supervillin, N-terminal region, residues 1-830; as far as recalled the Luna laboratory constructs are bovine supervillin; also called GFP-SV1-830; GFP-supervillin 1-830; source: primary human macrophages, transfected, in lysate
Experiment: co-IP; anti-GFP immunoprecipitation (µMACS anti-GFP Microbeads) from lysates of macrophages expressing GFP-fused constructs (500 mM NaCl, 2% Triton X-100, 50 mM Tris-HCl pH 8.0), washes with RIPA and high-salt RIPA; GFP alone as control; western blot of endogenous partners, densitometry

Amino acid sequences for entries named in this document (tags omitted).
UniProt Q15746: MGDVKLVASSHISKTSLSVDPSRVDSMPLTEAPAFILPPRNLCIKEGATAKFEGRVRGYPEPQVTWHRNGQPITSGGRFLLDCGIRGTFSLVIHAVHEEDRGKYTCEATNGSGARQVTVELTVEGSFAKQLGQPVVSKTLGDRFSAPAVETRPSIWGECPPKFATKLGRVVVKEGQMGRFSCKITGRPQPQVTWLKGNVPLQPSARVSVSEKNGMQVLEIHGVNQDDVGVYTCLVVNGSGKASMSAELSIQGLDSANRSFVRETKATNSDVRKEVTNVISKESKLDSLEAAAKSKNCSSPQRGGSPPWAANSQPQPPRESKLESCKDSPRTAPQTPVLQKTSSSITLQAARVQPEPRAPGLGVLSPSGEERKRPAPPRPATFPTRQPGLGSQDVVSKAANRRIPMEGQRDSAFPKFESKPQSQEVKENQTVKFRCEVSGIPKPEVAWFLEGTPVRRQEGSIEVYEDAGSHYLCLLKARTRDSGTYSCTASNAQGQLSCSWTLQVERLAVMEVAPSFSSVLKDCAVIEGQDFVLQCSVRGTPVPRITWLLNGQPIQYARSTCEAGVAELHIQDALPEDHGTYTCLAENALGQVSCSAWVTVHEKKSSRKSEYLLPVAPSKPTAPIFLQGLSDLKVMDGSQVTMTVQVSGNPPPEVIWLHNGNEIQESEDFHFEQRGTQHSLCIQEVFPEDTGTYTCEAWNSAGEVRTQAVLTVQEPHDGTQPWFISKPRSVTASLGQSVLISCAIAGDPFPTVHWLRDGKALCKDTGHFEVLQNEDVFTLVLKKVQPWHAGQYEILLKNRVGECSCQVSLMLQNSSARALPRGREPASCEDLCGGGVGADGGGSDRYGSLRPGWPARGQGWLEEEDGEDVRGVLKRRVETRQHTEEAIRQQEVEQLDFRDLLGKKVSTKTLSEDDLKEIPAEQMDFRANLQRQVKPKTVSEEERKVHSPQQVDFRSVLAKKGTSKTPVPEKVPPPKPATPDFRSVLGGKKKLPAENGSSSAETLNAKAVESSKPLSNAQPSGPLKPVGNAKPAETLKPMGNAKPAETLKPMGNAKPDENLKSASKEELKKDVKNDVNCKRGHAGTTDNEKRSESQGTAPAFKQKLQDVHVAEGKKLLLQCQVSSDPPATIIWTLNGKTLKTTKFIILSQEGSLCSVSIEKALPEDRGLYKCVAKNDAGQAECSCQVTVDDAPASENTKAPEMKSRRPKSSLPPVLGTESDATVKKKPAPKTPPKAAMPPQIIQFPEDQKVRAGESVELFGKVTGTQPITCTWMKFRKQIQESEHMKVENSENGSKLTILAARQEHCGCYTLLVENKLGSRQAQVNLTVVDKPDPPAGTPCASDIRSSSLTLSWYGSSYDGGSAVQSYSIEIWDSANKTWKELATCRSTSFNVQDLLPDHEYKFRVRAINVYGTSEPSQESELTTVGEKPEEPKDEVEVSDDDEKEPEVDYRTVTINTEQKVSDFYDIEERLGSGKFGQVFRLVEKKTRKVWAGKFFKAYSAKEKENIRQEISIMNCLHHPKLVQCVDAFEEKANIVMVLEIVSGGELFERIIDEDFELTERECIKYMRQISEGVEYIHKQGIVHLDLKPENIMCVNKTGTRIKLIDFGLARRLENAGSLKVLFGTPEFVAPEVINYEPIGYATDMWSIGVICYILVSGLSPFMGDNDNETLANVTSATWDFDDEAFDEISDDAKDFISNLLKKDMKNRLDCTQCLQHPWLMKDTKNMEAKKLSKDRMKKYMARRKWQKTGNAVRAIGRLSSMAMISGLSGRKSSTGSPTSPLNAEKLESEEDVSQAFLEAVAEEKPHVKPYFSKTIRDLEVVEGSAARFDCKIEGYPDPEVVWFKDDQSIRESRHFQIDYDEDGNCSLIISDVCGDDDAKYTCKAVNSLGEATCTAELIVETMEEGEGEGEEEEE

With “long form of myosin light chain kinase (L-MLCK), endogenous (from UniProt Q15746 1-1914) (enzyme)” as the substance, how does the binding read?
Its binding is “binds”.

— PMC5802837, “Lymphocyte-specific protein 1 regulates mechanosensory oscillation of podosomes and actin isoform-based actomyosin symmetry breaking” (Nature Communications, 2018)
